Test results reported in patent US9775353B2, “Pesticidally active heterocyclic derivatives with sulphur containing substituents” (Syngenta Participations AG, priority 2014, dated 2017).
Some of these results come from one statement about several compounds together.

Tests used:
[1] = system: Myzus persicae (green peach aphid); test: Example B9: Activity against Myzus persicae (systemic/feeding activity, curative, mixed population); type: in vivo; conditions: 24 ppm; roots of infested pea seedlings in test solution; mortality 6 days after introduction
[2] = system: Frankliniella occidentalis (western flower thrips); test: Example B4: Activity against Frankliniella occidentalis (mixed population, feeding/contact, preventative); type: in vivo; conditions: 400 ppm; sunflower leaf discs sprayed, mixed ages; mortality 7 DAT

`CCSc1ccc(-c2cnc(-c3nc4cc(C(F)(F)F)ncc4n3C)c(S(=O)(=O)CC)c2)cc1` [Compound P32] was tested. Which activity [1] did it give?
Its activity is “at least 80%”.

For `CCS(=O)(=O)c1cc(-c2ccc(C#N)cc2)cnc1-c1nc2cc(C(F)(F)F)ncc2n1C` [Compound P36], which activity [2] is on record?
Its activity is “over 80%”.

Which activity [2] does the source give for `CCS(=O)(=O)c1cc(-c2ccc(F)cc2)cnc1-c1nc2cc(C(F)(F)F)ncc2n1C` [Compound P13] here?
The activity was “over 80%”.

For `CCS(=O)(=O)c1cc(-c2cccc(CC#N)c2)cnc1-c1nc2cc(C(F)(F)F)ncc2n1C` [Compound P29], which activity [2] is on record?
Its activity is “over 80%”.

For `CCS(=O)(=O)c1cc(-c2ccc(Cl)cc2Cl)cnc1-c1nc2cc(C(F)(F)F)ncc2n1C` [Compound P8], which activity [1] is on record?
The activity was “at least 80%”.

`CCSc1cc(-c2ccc(Cl)cc2)cnc1-c1nc2cc(C(F)(F)F)ncc2n1C` [Compound P15, 2-[5-(4-chlorophenyl)-3-ethylsulfanyl-2-pyridyl]-3-methyl-6-(trifluoromethyl)imidazo[4,5-c]pyridine] was tested. Which activity [2] did it give?
Its activity is “over 80%”.

`CCS(=O)(=O)c1cc(-c2ccc(Cl)cc2)ccc1-c1nc2cc(C(F)(F)F)ncc2n1C` [Compound P22] was tested. Which activity [2] did it give?
The activity was “over 80%”.

With `CCS(=O)(=O)c1cc(-c2cc(F)cc(F)c2)cnc1-c1nc2cc(C(F)(F)F)ncc2n1C` [Compound P7] as the compound, how does the activity [2] read?
Its activity is “over 80%”.

`CCS(=O)(=O)c1cc(-c2ccc(Cl)cc2)cnc1-c1nc2cc(C(F)(F)F)ncc2n1C` [Compound P1, 2-[5-(4-chlorophenyl)-3-ethylsulfonyl-2-pyridyl]-3-methyl-6-(trifluoromethyl)imidazo[4,5-c]pyridine] was tested. Which activity [2] did it give?
The activity was “over 80%”.
